Measured values taken from the supplement of paper PMC6078165.
Values are relative to the signal before dosing, not to a vehicle control; the signal also falls without drug.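 Fibroblast labels name human fibroblasts: mostly primary ones from tissues such as uterus (C12385, HUF), lung (H6013), bone (Hs27A), adrenal (HADF) and skin (WS1), plus mammary HMF and breast cancer-associated Hs343T. The cancer cells are basal-like or mesenchymal-like triple-negative breast cancer lines. The paper calls a changed response a hit when it shifts by more than 3x the replicate standard deviation. The tissue of the other fibroblasts is not given here.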

Tested on: BT20
Test: relative JC-1 red fluorescence (viability) vs pre-drug, coculture with fibroblast (fraction); higher = more viable cancer cells
Conditions: 100 µM
Description: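 JC-1 labelled TNBC cells cocultured 1:1 (1,500 cells each) with CellTrace Violet stained primary or stromal fibroblasts in 384-well plates in FluoroBrite medium, treated with one of 42 anticancer drugs at 0.1, 1, 10 or 100 uM. JC-1 red fluorescence (mitochondrial integrity in cancer cells only) was read by plate reader every 8 h for 72 h. Values are normalised to each well's pre-drug value. The stock of one drug was tenfold lower, so its dose labels may be too high.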

CN(Cc1cnc2nc(N)nc(N)c2n1)c1ccc(C(=O)N[C@@H](CCC(=O)O)C(=O)O)cc1 [Methotrexate]
relative JC-1 red fluorescence
Conditions	8 h	16 h	24 h	32 h	40 h	48 h	56 h	64 h	72 h
coculture fibroblast: C12385	0.909	0.831	0.805	0.747	0.704	0.673	0.6474	0.62	0.598
coculture fibroblast: H6013	0.92221	0.886	0.8455	0.7956	0.75731	0.741	0.74026	0.7211	0.71
coculture fibroblast: H6019	0.867	0.802	0.782	0.71	0.665	0.641	0.602	0.5724	0.557
coculture fibroblast: H6076	0.931	0.849	0.7748	0.733	0.726	0.694	0.695	0.696	0.684
coculture fibroblast: H6231	0.9265	0.8843	0.7654	0.711	0.6662	0.616	0.577	0.554	0.536
coculture fibroblast: HADF	0.963	0.912	0.847	0.805	0.768	0.712	0.684	0.656	0.624
coculture fibroblast: HCFa	0.903	0.854	0.8232	0.7598	0.7225	0.6846	0.66	0.642	0.615
coculture fibroblast: HCPF	0.934	0.874	0.79	0.734	0.686	0.638	0.593	0.564	0.522
coculture fibroblast: HHSteC	0.895	0.884	0.891	0.827	0.793	0.76	0.749	0.731	0.714
coculture fibroblast: HMF	0.9565	0.8563	0.756	0.696	0.657	0.61	0.578	0.558	0.522
coculture fibroblast: HPFa	0.9378	0.871	0.864	0.788	0.764	0.734	0.715	0.695	0.665
coculture fibroblast: HUF	0.904	0.839	0.822	0.751	0.708	0.673	0.663	0.657	0.649
coculture fibroblast: Hs5	0.972	0.8932	0.8304	0.7809	0.738	0.699	0.677	0.668	0.655
coculture fibroblast: Hs27A	0.781	0.951	0.813	0.921	0.898	0.894	0.888	0.885	0.856
coculture fibroblast: Hs343T	0.926	0.882	0.796	0.723	0.668	0.607	0.556	0.531	0.495
coculture fibroblast: WS1	0.8852	0.804	0.784	0.721	0.676	0.641	0.619	0.592	0.578
